Consider two molecules from paper PMC7316826.

By UniProt entry, the sequences of proteins in these tests, tags left out. Residues count along the entry.
UniProt Q9QUK6, residues 26-835: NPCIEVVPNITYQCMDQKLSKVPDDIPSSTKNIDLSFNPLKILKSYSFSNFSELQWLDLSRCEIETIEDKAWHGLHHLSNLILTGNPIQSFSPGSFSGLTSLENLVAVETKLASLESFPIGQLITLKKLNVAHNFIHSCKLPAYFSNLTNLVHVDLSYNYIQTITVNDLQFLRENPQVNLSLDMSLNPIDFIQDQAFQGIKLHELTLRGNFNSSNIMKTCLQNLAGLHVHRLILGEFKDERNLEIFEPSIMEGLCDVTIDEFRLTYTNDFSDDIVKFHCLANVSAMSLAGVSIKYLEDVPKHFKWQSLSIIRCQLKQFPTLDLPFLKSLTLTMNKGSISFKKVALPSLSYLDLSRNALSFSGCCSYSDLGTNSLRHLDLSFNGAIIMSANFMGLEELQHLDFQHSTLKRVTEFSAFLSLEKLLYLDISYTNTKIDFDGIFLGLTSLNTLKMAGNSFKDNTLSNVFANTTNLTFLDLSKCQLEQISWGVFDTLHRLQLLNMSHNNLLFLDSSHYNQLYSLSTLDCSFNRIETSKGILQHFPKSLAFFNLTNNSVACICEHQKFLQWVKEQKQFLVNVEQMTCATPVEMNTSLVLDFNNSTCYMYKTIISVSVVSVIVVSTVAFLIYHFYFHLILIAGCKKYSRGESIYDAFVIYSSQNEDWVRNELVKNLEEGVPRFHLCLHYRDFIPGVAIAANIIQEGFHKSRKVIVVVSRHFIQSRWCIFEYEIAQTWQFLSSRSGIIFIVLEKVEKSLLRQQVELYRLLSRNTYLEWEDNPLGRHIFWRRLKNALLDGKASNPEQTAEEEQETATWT

No constants are given. Whether binding was seen depends on the method and setting. Binding seen in cells or lysates may run through a third protein. Some binding calls cover weakened binding; strength is not graded here.

Test [1] has as its target T1, lysophosphatidylcholine acyltransferase 2 (LPCAT2) (mouse (endogenous in RAW264.7)) (UniProt Q8BYI6).
T1 sequence: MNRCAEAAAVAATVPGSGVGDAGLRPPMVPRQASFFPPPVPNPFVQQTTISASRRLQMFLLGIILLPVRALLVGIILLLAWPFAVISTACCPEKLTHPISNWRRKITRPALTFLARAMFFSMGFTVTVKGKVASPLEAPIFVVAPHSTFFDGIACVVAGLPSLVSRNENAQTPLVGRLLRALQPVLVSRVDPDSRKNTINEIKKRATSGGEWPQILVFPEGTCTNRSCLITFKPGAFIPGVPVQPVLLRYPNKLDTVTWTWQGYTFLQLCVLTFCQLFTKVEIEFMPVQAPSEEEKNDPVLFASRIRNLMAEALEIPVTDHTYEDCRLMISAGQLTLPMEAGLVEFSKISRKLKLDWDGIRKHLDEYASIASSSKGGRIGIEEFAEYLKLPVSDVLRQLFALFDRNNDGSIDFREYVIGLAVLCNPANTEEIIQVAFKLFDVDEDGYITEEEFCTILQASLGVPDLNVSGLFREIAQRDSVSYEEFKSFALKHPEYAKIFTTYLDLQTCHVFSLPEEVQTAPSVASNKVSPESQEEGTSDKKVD
Kind of test: co-IP; cells stimulated with LPS for 15 or 30 minutes; lysate pre-cleared with normal antibodies of the same species; IP with anti-TLR4 or anti-LPCAT2 antibody, immunoblot for the other protein.

The target in test [2] is TLR4 (mouse (endogenous in RAW264.7)) (UniProt Q9QUK6). Kind of test: co-IP; unstimulated (resting) cells; lysate pre-cleared with normal antibodies of the same species; IP with anti-TLR4 or anti-LPCAT2 antibody, immunoblot for the other protein. On the technique in general: A western blot detects proteins with antibodies after separation by electrophoresis.
For test [3] the target is unchanged. Kind of test: co-IP; cells stimulated with LPS for 15 or 30 minutes; lysate pre-cleared with normal antibodies of the same species; IP with anti-TLR4 or anti-LPCAT2 antibody, immunoblot for the other protein.

Regarding “TLR4 (from UniProt Q9QUK6 26-835) (receptor)”, the binding result in test [1] was “binds”.

B1: lysophosphatidylcholine acyltransferase 2 (LPCAT2) (enzyme, UniProt Q8BYI6-1 1-544)
chain: MNRCAEAAAVAATVPGSGVGDAGLRPPMVPRQASFFPPPVPNPFVQQTTISASRRLQMFLLGIILLPVRALLVGIILLLAWPFAVISTACCPEKLTHPISNWRRKITRPALTFLARAMFFSMGFTVTVKGKVASPLEAPIFVVAPHSTFFDGIACVVAGLPSLVSRNENAQTPLVGRLLRALQPVLVSRVDPDSRKNTINEIKKRATSGGEWPQILVFPEGTCTNRSCLITFKPGAFIPGVPVQPVLLRYPNKLDTVTWTWQGYTFLQLCVLTFCQLFTKVEIEFMPVQAPSEEEKNDPVLFASRIRNLMAEALEIPVTDHTYEDCRLMISAGQLTLPMEAGLVEFSKISRKLKLDWDGIRKHLDEYASIASSSKGGRIGIEEFAEYLKLPVSDVLRQLFALFDRNNDGSIDFREYVIGLAVLCNPANTEEIIQVAFKLFDVDEDGYITEEEFCTILQASLGVPDLNVSGLFREIAQRDSVSYEEFKSFALKHPEYAKIFTTYLDLQTCHVFSLPEEVQTAPSVASNKVSPESQEEGTSDKKVD
On to B1, for which the binding entry was “binds weakly” in test [2] and “binds” in test [3].
